## Library screen at single concentrations

Chains of the proteins cited; added tags and fusions are not shown. Residues count along the entry.
UniProt Q4DA54, 1-478: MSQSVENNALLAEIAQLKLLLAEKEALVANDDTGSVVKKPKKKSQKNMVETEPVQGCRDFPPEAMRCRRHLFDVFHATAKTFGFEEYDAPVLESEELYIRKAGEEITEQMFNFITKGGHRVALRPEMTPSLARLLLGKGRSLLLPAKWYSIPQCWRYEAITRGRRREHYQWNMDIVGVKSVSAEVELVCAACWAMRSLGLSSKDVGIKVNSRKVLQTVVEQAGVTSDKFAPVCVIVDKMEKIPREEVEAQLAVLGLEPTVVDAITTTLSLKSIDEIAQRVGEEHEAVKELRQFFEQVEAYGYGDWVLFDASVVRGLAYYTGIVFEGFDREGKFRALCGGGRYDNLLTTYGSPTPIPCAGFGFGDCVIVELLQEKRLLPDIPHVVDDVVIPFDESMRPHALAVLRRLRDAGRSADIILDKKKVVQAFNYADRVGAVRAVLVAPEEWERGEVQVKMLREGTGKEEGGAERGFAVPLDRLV
UniProt A4I591, 1-473: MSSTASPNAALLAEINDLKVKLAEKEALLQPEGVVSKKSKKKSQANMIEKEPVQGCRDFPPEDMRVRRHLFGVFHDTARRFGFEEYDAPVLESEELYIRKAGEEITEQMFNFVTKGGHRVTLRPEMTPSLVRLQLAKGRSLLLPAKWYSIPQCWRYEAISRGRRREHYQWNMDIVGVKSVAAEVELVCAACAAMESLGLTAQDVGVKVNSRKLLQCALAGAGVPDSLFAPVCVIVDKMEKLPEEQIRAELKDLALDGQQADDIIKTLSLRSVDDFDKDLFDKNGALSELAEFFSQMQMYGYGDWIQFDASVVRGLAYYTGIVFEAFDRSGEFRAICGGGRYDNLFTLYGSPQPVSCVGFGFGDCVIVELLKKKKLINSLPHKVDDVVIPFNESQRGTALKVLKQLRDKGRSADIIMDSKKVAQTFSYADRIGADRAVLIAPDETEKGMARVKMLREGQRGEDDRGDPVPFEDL
UniProt Q8IDJ8, 1-583: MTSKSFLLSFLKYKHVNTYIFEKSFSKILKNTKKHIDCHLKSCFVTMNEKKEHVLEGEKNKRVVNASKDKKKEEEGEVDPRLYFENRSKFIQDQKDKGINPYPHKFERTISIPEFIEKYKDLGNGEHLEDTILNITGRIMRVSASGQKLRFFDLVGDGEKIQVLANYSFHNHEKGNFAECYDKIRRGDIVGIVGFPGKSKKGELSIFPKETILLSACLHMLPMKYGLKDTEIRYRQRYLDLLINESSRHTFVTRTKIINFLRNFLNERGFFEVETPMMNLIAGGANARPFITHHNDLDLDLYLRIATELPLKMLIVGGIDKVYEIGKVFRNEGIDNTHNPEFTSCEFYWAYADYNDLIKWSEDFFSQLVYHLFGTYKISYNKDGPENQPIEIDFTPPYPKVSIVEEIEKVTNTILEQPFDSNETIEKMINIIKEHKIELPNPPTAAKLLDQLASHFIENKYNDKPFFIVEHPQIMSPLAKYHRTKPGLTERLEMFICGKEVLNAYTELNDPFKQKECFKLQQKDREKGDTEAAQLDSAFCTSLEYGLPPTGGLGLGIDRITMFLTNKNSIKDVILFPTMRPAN
UniProt P9WNZ1, whole entry: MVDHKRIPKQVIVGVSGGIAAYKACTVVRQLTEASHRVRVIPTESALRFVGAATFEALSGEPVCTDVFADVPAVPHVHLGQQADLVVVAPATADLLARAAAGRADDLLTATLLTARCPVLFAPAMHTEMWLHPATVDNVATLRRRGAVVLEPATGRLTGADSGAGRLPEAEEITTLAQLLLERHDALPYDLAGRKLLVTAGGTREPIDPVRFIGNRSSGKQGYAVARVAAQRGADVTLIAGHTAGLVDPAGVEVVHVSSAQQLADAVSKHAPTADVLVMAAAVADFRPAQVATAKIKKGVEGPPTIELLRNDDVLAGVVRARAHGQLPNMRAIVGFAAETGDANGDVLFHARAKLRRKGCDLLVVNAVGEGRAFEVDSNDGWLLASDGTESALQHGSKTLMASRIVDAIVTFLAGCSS

Source: ChEMBL document CHEMBL3988442, “University of Dundee, Small-Polar-MMV Screening Library” (2021).

TcHisRS: 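Enzyme assay of histidyl-tRNA synthetase; the read-out is not stated. Target: Histidine-tRNA ligase, Trypanosoma cruzi CL Brener (UniProt Q4DA54). Compounds at 30 µM. Direction is inferred from retests: higher values go with stronger inhibition. Size under these conditions: about 69,000 compounds, about 31 of them at 50% or above in at least one test.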
LiHisRS: 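Enzyme assay of histidyl-tRNA synthetase; the read-out is not stated. Target: Histidine-tRNA ligase, Leishmania infantum (UniProt A4I591). Tested at 30 µM. The record gives no direction; compounds that gave an IC50 in retests scored well above the rest, so higher reads as stronger inhibition. The assay is labelled LdHisRS but filed under L. infantum. Size under these conditions: about 69,000 compounds, about 410 of them at 50% or above in at least one test.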
Toxoplasma: 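Assay of Toxoplasma gondii numbers, read through their beta-galactosidase reporter with a colour substrate. Tested at 10 µM. Higher reads as fewer parasites (inferred from which compounds were picked for retests). Of about 67,000 compounds tested this way, about 260 (0.38%) reached 50% or more in at least one test.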
PfKRS1: 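Lysine-tRNA ligase, Plasmodium falciparum 3D7 (UniProt Q8IDJ8). Enzyme assay of the cytosolic lysyl-tRNA synthetase in 384-well plates, read by luminescence. Concentration: 30 µM. Direction is inferred from only a few compounds that gave an IC50; most scored high, so higher reads as stronger inhibition. Size under these conditions: about 69,000 compounds, about 49 of them at 50% or above in at least one test.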
CoaBC: 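Coenzyme A biosynthesis protein CoaBC, Mycobacterium tuberculosis (UniProt P9WNZ1). Enzyme assay of CoaBC with a phosphate dye (Biomol Green) read at 650 nm. Concentration: 30 µM. Higher reads as stronger inhibition, judged from the few compounds that gave an IC50. Most strong results did not repeat in a second test. About 67,000 compounds were tested under these conditions; 0.06% (about 40) showed 50% or more at least once.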

Each number is a percent effect as filed. The controls that fix the scale are not given in the record; negative values are as filed. The compounds are a random part of those screened. A dash means the value is not listed here; it may have been measured.

| # | SMILES | TcHisRS | LiHisRS | Toxoplasma | PfKRS1 | CoaBC |
|---|---|---|---|---|---|---|
| 1 | `CN1CC(C(=O)NCCc2ccn(-c3ccc(F)cc3)n2)CC1=O` (stereo unspecified) | -1.031 | 11.29 | 6.884 | 4.443 | 1.711 |
| 2 | `[H][C@]12CCN(c3ncccn3)[C@@]1([H])CC[C@@H](COCc1ccccn1)O2` | - | - | 15.68 | - | - |
| 3 | `CCc1nc(COc2ccc(OCc3cnn(C)c3)cc2)no1` | -1.667 | 17.31 | -1.847 | 0.7632 | 10.45 |
| 4 | `CC(C)CN1CCC(c2nnc(CN3CCCC3)n2C2CC2)CC1` | 4.348 | 24.24 | 9.527 | 2.337 | -1.815 |
| 5 | `Nc1nnc(SCC(=O)c2cc3c(cc2Cl)NC(=O)C3)s1` | 7.317 | 50 | -1.623 | 6.679 | 4.557 |
| 6 | `Cc1nc(-c2ccccc2F)sc1C(=O)N1CCN(C)CC1` | -5.785 | 3.81 | 0.06127 | 3.592 | -7.018 |
| 7 | `CCc1ncnc2c1CCN(Cc1ccc(OC)cc1)CC2` | -1.639 | 9.804 | - | -2.47 | -0.9009 |
| 8 | `CC(C)(N)C(=O)N1CCC(c2nccnc2Oc2ccccc2F)CC1` | -2.198 | -4.348 | 14.05 | -3.03 | -2.427 |
| 9 | `Cn1nc(COCC2CC2)c2c1CCN(Cc1ccco1)C2` | 7.767 | 13.59 | - | 3.212 | 4.071 |
| 10 | `O=C(O)C(F)(F)F.[H][C@@]12CCN(C(=O)NC)CC[C@]1(C(=O)N1CCOCC1)CCN2C` | - | - | 4.031 | - | - |
| 11 | `CC(=O)N1CCN(Cc2c(C)sc3ccccc23)CC(O)C1` (stereo unspecified) | 3.571 | 8.889 | 0.5823 | 4.963 | 3.186 |
| 12 | `O=C(O)C(F)(F)F.[H][C@@]12CN(Cc3nccs3)C[C@]1([H])C(=O)N(c1cncnc1)C2` | - | - | -32.18 | - | - |
| 13 | `O=C1N[C@H]2OCCC[C@H]2[C@H](c2ccc(C(=O)O)cc2)N1` | 7.28 | 5.755 | - | -0.6407 | -3.349 |
| 14 | `CN(CCNC(=O)Nc1nccs1)Cc1ccc(F)cc1` | 5.473 | 15.66 | 1.399 | -0.6989 | 11.67 |
| 15 | `CCc1cc(CN2C[C@H]3CC[C@@H]2CN(C2Cc4ccccc4C2)C3)on1` | 29.6 | 41.59 | - | 6.323 | -19.75 |
| 16 | `O=C(O)C(F)(F)F.O=C(O)C(F)(F)F.[H][C@@]12C[C@H](C(=O)NC3CC3)CN(Cc3ccc4ccccc4n3)[C@]1([H])CCO2` | - | - | -10.71 | - | - |
| 17 | `COC(=O)CCCNC(=O)N1CCc2c([nH]c3ccc(Cl)cc23)C1` | 4.094 | -7.895 | 20.49 | -1.212 | -1.515 |
| 18 | `O=C(O)C(F)(F)F.[H][C@@]12CCN(Cc3cc(C)on3)C[C@]1([H])OCCN(c1ccccc1)C2=O` | - | - | -4.049 | - | - |
| 19 | `c1nc2c(c(C3CCOC3)n1)CCN(Cc1ccoc1)CC2` (stereo unspecified) | -3.483 | 19.44 | -0.3695 | -1.302 | 4.839 |
| 20 | `CCc1nnc2n1CCN(Cc1csc(-c3ccsc3)n1)C2` | 8.13 | 8.654 | 2.443 | -1.184 | -2.954 |
| 21 | `O=C(O)C(F)(F)F.O=C(O)C(F)(F)F.[H][C@@]12CN(CCOC)C[C@]1([H])[C@@H](OC)CCN2S(=O)(=O)c1cccnc1` | - | - | -35.33 | - | - |
| 22 | `Cc1ccc(C2CSCCN2C(=O)c2ccccn2)cc1` (stereo unspecified) | -3.125 | 0 | -8.866 | 4.855 | 2.762 |
| 23 | `Cc1cnn(CC2CN(CC(=O)NCc3ccc(C)s3)CCO2)c1` (stereo unspecified) | 3.944 | 9.565 | -3.991 | 4.514 | 6.743 |
| 24 | `CC(C)Cc1cc(NC(=O)c2ccc[nH]2)n(C)n1` | 3.053 | 8.219 | 5.294 | 9.935 | 0.7229 |
| 25 | `O=C1CO[C@@H]2CN(Cc3cccs3)C[C@H]2N1Cc1ccncc1` | 2.732 | 11.76 | - | 6.815 | 1.673 |
| 26 | `Cc1c(NC(=O)NCCO)cccc1OC1CCCC1` | 10.5 | 4.145 | 4.475 | 4.294 | -1.146 |
| 27 | `O=C(O)C(F)(F)F.O=C(O)C(F)(F)F.[H][C@@]12CN(CCOC)C[C@]1([H])[C@@H](OC)CCN2Cc1ccc(C)o1` | - | - | -11.76 | - | - |
| 28 | `Cn1cnc(NC(=O)C2CC(=O)N(c3cccc(F)c3)C2)n1` (stereo unspecified) | -0.3831 | -2.878 | -4.427 | -1.296 | -2.392 |
| 29 | `O=C(NCCc1ccccc1Cl)NCC1(O)CCSC1` (stereo unspecified) | 1.935 | 15.15 | -1.679 | 5.814 | 1.208 |
| 30 | `CCn1ncc2c1C(COC)N(C(=O)c1ccsc1)CC2.O=C(O)C(F)(F)F` (stereo unspecified) | - | - | -13.84 | - | - |
| 31 | `NC(=O)CCN(CC(=O)NCc1ccccn1)c1ccc(F)cc1` | 8.911 | 2.174 | - | 2.355 | -0.6075 |
| 32 | `Cc1nnc([C@H]2C[C@H]3OCC[C@H]3N(S(=O)(=O)CC(C)C)C2)o1` | 6.135 | 17.09 | - | 9.362 | - |
| 33 | `Cc1cnn(CCNCC(=O)NCCOc2ccccc2)c1` | 0.7576 | 7.576 | 1.193 | -10.77 | 5.843 |
| 34 | `CC(C)C[C@H](N)COc1cccc(F)c1Oc1ccc(Cl)cc1` | 35.63 | 37.14 | 36.69 | -1.493 | 9.223 |
| 35 | `Cc1cnn(C2CCCN(C(=O)c3cc[nH]n3)C2)c1` (stereo unspecified) | 1.818 | 13.33 | -30.67 | 4.363 | -6.569 |
| 36 | `CCOCc1ncn2c1CN(C(=O)c1ccoc1)CC2` | 9.184 | 17 | -6.071 | 3.718 | 0.3708 |
| 37 | `CC(C)c1cccc(NC(=O)N2CC(N(C)C)C2)c1` | 0 | 17.65 | -0.947 | 9.153 | 1.463 |
| 38 | `COCCNC(=O)C[C@@H]1COC[C@H]2CN(CC3CCOCC3)C[C@@H]12` | -7.735 | -0.9009 | - | 1.662 | -2.475 |
| 39 | `CSCC(=O)NC1CCN(C(C)c2ccccc2)CC1` (stereo unspecified) | 8.621 | 6.25 | -1.125 | 5.868 | 3.571 |
| 40 | `CCc1nc(C)c(C2CC(=O)Nc3c2c(-c2cccnc2)nn3C)[nH]1` (stereo unspecified) | 7.027 | 25.64 | -6.762 | 1.488 | 1.282 |
| 41 | `COC(=O)N1CCC(NC(=O)N2CCCC2c2ccsc2)CC1` (stereo unspecified) | -0.5236 | 5.172 | 6.923 | 2.529 | 4.925 |
| 42 | `COCCN1C(=O)CC[C@]12CC[C@@H](NCc1cccc(C)n1)CC2` | 5.376 | 12.28 | - | -0.704 | -0.2114 |
| 43 | `COc1cccc(OCc2cc(C(=O)N3CC(O)C3)n[nH]2)c1` | 3.175 | 6.061 | 10.68 | 1.725 | 4.536 |
| 44 | `Cc1cnn(CC2CN(Cc3nnc(C(C)C)o3)CCO2)c1` (stereo unspecified) | 1.734 | 6.25 | -11.67 | -0.006753 | 3.193 |
| 45 | `Cc1nc(N)ncc1C(=O)N1CCCC(CCc2ccccc2F)C1` (stereo unspecified) | 7.463 | 9.79 | -12.46 | 1.537 | -2.222 |
| 46 | `CCOc1cc(C(=O)N(C)C)ccc1NC(=O)c1ccsc1` | -2.062 | 12.9 | 4.388 | 2.845 | -3.423 |
| 47 | `Cc1cc(C)cc(N2CCN(C(=O)CCN3C[C@@H]4CC[C@H]3C4)CC2=O)c1` | 11.44 | 12.59 | - | 3.074 | 9.877 |
| 48 | `Cc1noc(C(C)C)c1C(=O)NCC1CCN(c2ccccc2)C1` (stereo unspecified) | 9.554 | 15.49 | 2.805 | 2.93 | - |
| 49 | `CC(C)(CNC(=O)CSc1nnnn1C1CC1)c1ccccc1F` | 4.902 | 14.29 | -3.093 | 2.131 | 6.667 |
| 50 | `Cc1noc(C2CCCN(C(=O)c3cc(Cl)ccc3F)C2)n1` (stereo unspecified) | 0 | 8.264 | 0.579 | 20.34 | 7.127 |
| 51 | `Cc1noc(C)c1-c1ccnc(C2CCNCC2)c1` | 9.886 | -6.207 | 12.67 | 0.623 | 1.607 |
| 52 | `Cc1ccc(C(=O)N2CCc3c(COCC4CC4)cncc3C2)o1` | 3.941 | 17.65 | 5.109 | -2.763 | -0.5076 |
| 53 | `c1cncc(C2=NOC3(CCN(Cc4c[nH]c5ccccc45)CC3)C2)c1` | -0.5917 | 6.897 | 26.44 | 5.275 | 2.895 |
| 54 | `O=C(Cn1ccc2ccccc21)Nc1cc(N2CCOCC2)ncn1` | 4.124 | 3.478 | 5.663 | 2.773 | -6.131 |
| 55 | `Cc1ncsc1C(=O)Nc1ccccn1` | 7.538 | 8.989 | -24.48 | 4.594 | 1.324 |
| 56 | `CC(C)CCN1C2(CCN(Cc3nccs3)C2)c2ccccc2S1(=O)=O.O=C(O)C(F)(F)F` (stereo unspecified) | - | - | -12.85 | - | - |
| 57 | `COc1cccc(CN(C)Cc2nc3c(cnn3C)c(=O)[nH]2)c1OC` | 0.8333 | 13.21 | 4.602 | 2.28 | 2.316 |
| 58 | `Cc1cc(CN2CCN(C(C)C(=O)NCc3cccs3)CC2)no1` (stereo unspecified) | 6.404 | 11.84 | 0.1189 | 3.926 | -1.613 |
| 59 | `CC(CCN1CCOCC1)NC(=O)c1cccc(C(F)(F)F)c1F` (stereo unspecified) | 6.18 | 10.26 | -0.8394 | 5.07 | 7.042 |
| 60 | `FC(F)(F)c1cc(NCCn2ncnn2)nc(-c2cccnc2)n1` | 1.724 | 11.4 | 1.444 | 0.1479 | 4.519 |
| 61 | `Cc1cccc(CN2CCO[C@@H]3CC(COc4ccccn4)C[C@H]32)n1` (stereo partly specified) | -3.333 | 9.434 | - | 0.6535 | -2.927 |
| 62 | `CC(C)CSCCN1CCN(S(C)(=O)=O)CC1` | 2.02 | 13.83 | -12.89 | 0.4459 | 3.03 |

The last 5 entries again:

- Cc1cc(CN2CCN(C(C)C(=O)NCc3cccs3)CC2)no1 (stereo unspecified) | TcHisRS: 6.404%; LiHisRS: 11.84%; Toxoplasma: 0.1189%; PfKRS1: 3.926%; CoaBC: -1.613%
- CC(CCN1CCOCC1)NC(=O)c1cccc(C(F)(F)F)c1F (stereo unspecified) | TcHisRS: 6.18%; LiHisRS: 10.26%; Toxoplasma: -0.8394%; PfKRS1: 5.07%; CoaBC: 7.042%
- FC(F)(F)c1cc(NCCn2ncnn2)nc(-c2cccnc2)n1 | TcHisRS: 1.724%; LiHisRS: 11.4%; Toxoplasma: 1.444%; PfKRS1: 0.1479%; CoaBC: 4.519%
- Cc1cccc(CN2CCO[C@@H]3CC(COc4ccccn4)C[C@H]32)n1 (stereo partly specified) | TcHisRS: -3.333%; LiHisRS: 9.434%; PfKRS1: 0.6535%; CoaBC: -2.927%
- CC(C)CSCCN1CCN(S(C)(=O)=O)CC1 | TcHisRS: 2.02%; LiHisRS: 13.83%; Toxoplasma: -12.89%; PfKRS1: 0.4459%; CoaBC: 3.03%